Format in all cases: cell-based
Experiment [1] addresses T1, RNA polymerase II (Mus musculus) (UniProt P08775+Q8CFI7+P97760+A0A3Q4L2S8+Q80UW8+P61219+P62488+Q923G2+P60898+O08740+Q63871+P62876). Kind of experiment: Inhibition of RNA polymerase II in mouse B16-F1 migrating cells assessed as fold change in Ccar1-RNA stability at 0.1 mM measured by ChIP-seq analysis relative to control cells.
The target of experiment [2] is T1, RNA polymerase II (Mus musculus). Description: Inhibition of RNA polymerase II in mouse B16-F1 migrating cells assessed as fold change in Sept10-RNA stability at 0.1 mM measured by ChIP-seq analysis relative to control cells.
For experiment [3] the target is unchanged. Kind of experiment: Inhibition of RNA polymerase II in mouse B16-F1 migrating cells assessed as fold change in 0610010F05Rik-RNA stability at 0.1 mM measured by ChIP-seq analysis relative to control cells.
Experiment [4] has the same target. Description: Inhibition of RNA polymerase II in mouse B16-F1 migrating cells assessed as fold change in Rad50-RNA stability at 0.1 mM measured by ChIP-seq analysis relative to control cells.
The target is the same in experiment [5]. Description: Inhibition of RNA polymerase II in mouse B16-F1 migrating cells assessed as fold change in Gstp2-RNA stability at 0.1 mM measured by ChIP-seq analysis relative to control cells.
Experiment [6] shares this target. Kind of experiment: Inhibition of RNA polymerase II in mouse B16-F1 migrating cells assessed as fold change in Guca1a-RNA stability at 0.1 mM measured by ChIP-seq analysis relative to control cells.
Experiment [7] has the same target. Description: Inhibition of RNA polymerase II in mouse B16-F1 migrating cells assessed as fold change in Psmc6-RNA stability at 0.1 mM measured by ChIP-seq analysis relative to control cells.
For experiment [8] the target is unchanged. Kind of experiment: Inhibition of RNA polymerase II in mouse B16-F1 migrating cells assessed as fold change in Ktn1-RNA stability at 0.1 mM measured by ChIP-seq analysis relative to control cells.
For experiment [9] the target is unchanged. Kind of experiment: Inhibition of RNA polymerase II in mouse B16-F1 migrating cells assessed as fold change in Hells-RNA stability at 0.1 mM measured by ChIP-seq analysis relative to control cells.
The target is the same in experiment [10]. Kind of experiment: Inhibition of RNA polymerase II in mouse B16-F1 migrating cells assessed as fold change in Tm9sf3-RNA stability at 0.1 mM measured by ChIP-seq analysis relative to control cells.
Experiment [11] has the same target. Kind of experiment: Inhibition of RNA polymerase II in mouse B16-F1 migrating cells assessed as fold change in Dstyk-RNA stability at 0.1 mM measured by ChIP-seq analysis relative to control cells.
Experiment [12] has the same target. Kind of experiment: Inhibition of RNA polymerase II in mouse B16-F1 migrating cells assessed as fold change in Ppp3ca-RNA stability at 0.1 mM measured by ChIP-seq analysis relative to control cells.
Experiment [13] has the same target. Description: Inhibition of RNA polymerase II in mouse B16-F1 migrating cells assessed as fold change in Arl6ip6-RNA stability at 0.1 mM measured by ChIP-seq analysis relative to control cells.
The target is the same in experiment [14]. Description: Inhibition of RNA polymerase II in mouse B16-F1 migrating cells assessed as fold change in Kif15-RNA stability at 0.1 mM measured by ChIP-seq analysis relative to control cells.
Experiment [15] has the same target. Kind of experiment: Inhibition of RNA polymerase II in mouse B16-F1 migrating cells assessed as fold change in Pcf11-RNA stability at 0.1 mM measured by ChIP-seq analysis relative to control cells.
For experiment [16] the target is unchanged. Kind of experiment: Inhibition of RNA polymerase II in mouse B16-F1 migrating cells assessed as fold change in Selenot-RNA stability at 0.1 mM measured by ChIP-seq analysis relative to control cells.
The target is the same in experiment [17]. Kind of experiment: Inhibition of RNA polymerase II in mouse B16-F1 migrating cells assessed as fold change in Utp14b-RNA stability at 0.1 mM measured by ChIP-seq analysis relative to control cells.
The target is the same in experiment [18]. Description: Inhibition of RNA polymerase II in mouse B16-F1 migrating cells assessed as fold change in Ly6g5b-RNA stability at 0.1 mM measured by ChIP-seq analysis relative to control cells.
Experiment [19] has the same target. Description: Inhibition of RNA polymerase II in mouse B16-F1 migrating cells assessed as fold change in Tmtc3-RNA stability at 0.1 mM measured by ChIP-seq analysis relative to control cells.
For experiment [20] the target is unchanged. Kind of experiment: Inhibition of RNA polymerase II in mouse B16-F1 migrating cells assessed as fold change in Tfpi-RNA stability at 0.1 mM measured by ChIP-seq analysis relative to control cells.
The target in experiment [21] is Histone-lysine N-methyltransferase EZH2 (Mus musculus) (UniProt Q61188). Kind of experiment: Inhibition of EZH2 in mouse B16-F1 migrating cells assessed as fold change in H3K27me3-dependent regulated Smad7-mRNA expression at 3 uM measured by ChIP-seq analysis relative to control cells.
The target is the same in experiment [22]. Description: Inhibition of EZH2 in mouse B16-F1 migrating cells assessed as fold change in H3K27me3-buffered regulated Eif4a2-mRNA expression at 3 uM measured by ChIP-seq analysis relative to control cells.
Experiment [23] has the same target. Description: Inhibition of EZH2 in mouse B16-F1 migrating cells assessed as fold change in H3K27me3-independent regulated Prss46-mRNA expression at 3 uM measured by ChIP-seq analysis relative to control cells.
Experiment [24] has the same target. Description: Inhibition of EZH2 in mouse B16-F1 migrating cells assessed as fold change in H3K27me3-buffered regulated Fdps-mRNA expression at 3 uM measured by ChIP-seq analysis relative to control cells.
The target is the same in experiment [25]. Kind of experiment: Inhibition of EZH2 in mouse B16-F1 migrating cells assessed as fold change in H3K27me3-buffered regulated Fnbp1l-mRNA expression at 3 uM measured by ChIP-seq analysis relative to control cells.
Experiment [26] has the same target. Description: Inhibition of EZH2 in mouse B16-F1 migrating cells assessed as fold change in H3K27me3-buffered regulated Trim71-mRNA expression at 3 uM measured by ChIP-seq analysis relative to control cells.
Experiment [27] shares this target. Description: Inhibition of EZH2 in mouse B16-F1 migrating cells assessed as fold change in H3K27me3-independent regulated Gm10639-mRNA expression at 3 uM measured by ChIP-seq analysis relative to control cells.
Experiment [28] has the same target. Description: Inhibition of EZH2 in mouse B16-F1 migrating cells assessed as fold change in H3K27me3-buffered regulated Trim8-mRNA expression at 3 uM measured by ChIP-seq analysis relative to control cells.
Experiment [29] shares this target. Description: Inhibition of EZH2 in mouse B16-F1 migrating cells assessed as fold change in H3K27me3-buffered regulated Nr2f2-mRNA expression at 3 uM measured by ChIP-seq analysis relative to control cells.
The target is the same in experiment [30]. Description: Inhibition of EZH2 in mouse B16-F1 migrating cells assessed as fold change in H3K27me3-independent regulated Rhov-mRNA expression at 3 uM measured by ChIP-seq analysis relative to control cells.

Amino acid sequences for entries named in this document (tags omitted).
UniProt Q61188, whole entry: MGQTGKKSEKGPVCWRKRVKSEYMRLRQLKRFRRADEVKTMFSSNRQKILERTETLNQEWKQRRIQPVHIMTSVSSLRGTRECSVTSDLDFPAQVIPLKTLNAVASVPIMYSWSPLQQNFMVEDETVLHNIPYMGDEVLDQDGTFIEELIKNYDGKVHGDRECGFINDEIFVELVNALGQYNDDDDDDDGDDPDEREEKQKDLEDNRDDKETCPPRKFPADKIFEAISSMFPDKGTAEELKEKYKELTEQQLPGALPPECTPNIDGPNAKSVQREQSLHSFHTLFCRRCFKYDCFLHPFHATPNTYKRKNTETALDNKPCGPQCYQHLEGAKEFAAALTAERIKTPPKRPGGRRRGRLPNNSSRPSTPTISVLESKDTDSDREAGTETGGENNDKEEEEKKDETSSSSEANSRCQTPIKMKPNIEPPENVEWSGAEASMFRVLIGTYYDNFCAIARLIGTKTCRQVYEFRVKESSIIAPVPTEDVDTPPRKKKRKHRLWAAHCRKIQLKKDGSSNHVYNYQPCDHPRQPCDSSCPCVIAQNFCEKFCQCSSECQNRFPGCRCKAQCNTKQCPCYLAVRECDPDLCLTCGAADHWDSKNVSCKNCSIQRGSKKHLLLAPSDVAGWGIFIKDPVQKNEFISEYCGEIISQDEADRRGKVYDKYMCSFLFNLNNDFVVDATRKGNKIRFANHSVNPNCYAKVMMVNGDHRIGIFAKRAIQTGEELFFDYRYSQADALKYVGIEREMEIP

The source gives many values for each of these; only a part stands here.

On to `OC[C@H]1O[C@@H](n2cnc3cc(Cl)c(Cl)cc32)[C@H](O)[C@@H]1O`, for which the log2FC was -0.74 in [1]; -0.45 in experiment [2]; -0.46 in experiment [3]; -0.57 in experiment [4]; 0.62 in experiment [5]; 0.83 in experiment [6]. The log2FC in experiment [7] was -0.61; in experiment [8], -0.62; in experiment [9], -1.03; in experiment [10] it was -0.52; in experiment [11], -0.43; in [12] it was -0.57. The log2FC is -0.73 in experiment [13]; -1.07 in experiment [14]; -0.73 in [15]; -0.66 in experiment [16]; -0.54 in experiment [17]; -0.87 in experiment [18]. In addition, the log2FC in [19] is -0.85; in experiment [20], -0.5.

In the case of `CCCc1cc(C)[nH]c(=O)c1CNC(=O)c1cc(-c2ccnc(N3CCN(C)CC3)c2)cc2c1cnn2C(C)C`, the log2FC is 0.38 in experiment [21]; -0.53 in experiment [22]; 1.38 in [23]; 0.39 in experiment [24]; -0.44 in experiment [25]; -0.61 in [26]. The log2FC is 0.72 in experiment [27], -0.53 in [28], -0.77 in experiment [29] and 2.23 in [30].

These data come from ChEMBL document CHEMBL5674883, “The Heterochromatin Landscape in Migrating Cells and the Importance of H3K27me3 for Associated Transcriptome Alterations” (Cells, 2018).
